The list shows a part of the results.
Columns and labels:
Assay in all cases: log2 fold change, soluble protein after heating vs DMSO (PISA); higher = thermal stabilisation; K562 lysate, 10 uM; active = over 0.2 and 3.5 SD of the protein, either way, in both replicates (recomputed)
erlotinib = compound: C#Cc1cccc(Nc2ncnc3cc(OCCOC)c(OCCOC)cc23)c1 [erlotinib]
Procedure, shortened: (§1)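 Log-two fold change in thermal stability relative to solvent controls is reported from duplicates. For each sample, crude K562 extract from dounce-homogenised pellets in PBS pH 7.4 with 1 mM MgCl2, at 1 mg/mL protein, was treated with 10 μM compound for 30 min. Aliquots heated for 3 min across 48°C-58°C were pooled, brought to 0.5% NP-40 at 4°C and cleared at 21,000xg for 90 min. The supernatant was quantified by TMTpro 16plex LC-MS/MS with channel sums equalised.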

Protein sequences, listed by entry. Tags and fused reporters are not part of them. Lines headed by an entry give the natural chain unless they say otherwise; changes in a name come on top.
UniProt Q8IX12: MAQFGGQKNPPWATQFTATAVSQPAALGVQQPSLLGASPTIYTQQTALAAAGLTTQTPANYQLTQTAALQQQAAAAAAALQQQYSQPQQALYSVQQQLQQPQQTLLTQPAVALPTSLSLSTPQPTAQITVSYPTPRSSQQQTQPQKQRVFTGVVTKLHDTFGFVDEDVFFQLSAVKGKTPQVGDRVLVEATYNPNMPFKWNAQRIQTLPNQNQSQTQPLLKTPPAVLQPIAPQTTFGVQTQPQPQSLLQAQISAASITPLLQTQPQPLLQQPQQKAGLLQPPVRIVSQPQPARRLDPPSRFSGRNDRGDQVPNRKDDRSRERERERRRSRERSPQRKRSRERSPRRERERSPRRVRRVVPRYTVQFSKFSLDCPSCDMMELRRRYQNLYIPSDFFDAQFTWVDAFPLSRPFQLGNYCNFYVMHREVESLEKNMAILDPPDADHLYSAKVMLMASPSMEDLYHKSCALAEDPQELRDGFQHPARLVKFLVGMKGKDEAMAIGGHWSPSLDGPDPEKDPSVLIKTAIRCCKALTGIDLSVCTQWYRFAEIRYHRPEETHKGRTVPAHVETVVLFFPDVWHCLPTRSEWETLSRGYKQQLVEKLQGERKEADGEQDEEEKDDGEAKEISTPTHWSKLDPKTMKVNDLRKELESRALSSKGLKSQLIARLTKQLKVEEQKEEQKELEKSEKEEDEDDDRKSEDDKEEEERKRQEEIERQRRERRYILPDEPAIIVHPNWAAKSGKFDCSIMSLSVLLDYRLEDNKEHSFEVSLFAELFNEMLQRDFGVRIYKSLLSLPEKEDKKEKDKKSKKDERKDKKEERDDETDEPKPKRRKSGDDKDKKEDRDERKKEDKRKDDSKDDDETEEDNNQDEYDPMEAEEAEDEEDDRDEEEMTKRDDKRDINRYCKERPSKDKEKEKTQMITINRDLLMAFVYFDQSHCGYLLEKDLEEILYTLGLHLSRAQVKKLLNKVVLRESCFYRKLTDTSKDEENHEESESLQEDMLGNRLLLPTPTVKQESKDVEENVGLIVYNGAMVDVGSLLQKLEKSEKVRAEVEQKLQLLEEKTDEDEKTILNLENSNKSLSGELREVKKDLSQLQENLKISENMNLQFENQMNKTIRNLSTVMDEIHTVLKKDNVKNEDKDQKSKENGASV
UniProt Q7Z6B0: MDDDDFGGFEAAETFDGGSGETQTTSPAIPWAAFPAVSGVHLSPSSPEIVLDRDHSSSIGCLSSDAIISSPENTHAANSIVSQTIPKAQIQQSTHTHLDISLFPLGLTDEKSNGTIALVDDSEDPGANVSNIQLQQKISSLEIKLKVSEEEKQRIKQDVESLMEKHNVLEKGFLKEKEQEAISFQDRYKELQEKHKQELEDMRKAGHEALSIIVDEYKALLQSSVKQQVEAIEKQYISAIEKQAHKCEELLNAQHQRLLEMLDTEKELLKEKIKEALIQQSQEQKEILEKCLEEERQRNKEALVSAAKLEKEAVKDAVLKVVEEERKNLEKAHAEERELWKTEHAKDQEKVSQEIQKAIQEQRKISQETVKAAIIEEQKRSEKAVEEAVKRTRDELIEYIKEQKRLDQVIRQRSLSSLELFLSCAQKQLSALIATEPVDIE
UniProt P60033: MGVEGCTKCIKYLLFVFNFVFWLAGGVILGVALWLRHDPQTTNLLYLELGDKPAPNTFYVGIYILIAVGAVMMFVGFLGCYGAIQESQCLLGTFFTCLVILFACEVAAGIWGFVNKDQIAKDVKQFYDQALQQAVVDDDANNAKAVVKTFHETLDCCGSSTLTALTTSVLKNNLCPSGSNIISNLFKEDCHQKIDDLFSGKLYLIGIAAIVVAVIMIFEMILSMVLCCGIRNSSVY
UniProt Q08722, whole entry, looked up: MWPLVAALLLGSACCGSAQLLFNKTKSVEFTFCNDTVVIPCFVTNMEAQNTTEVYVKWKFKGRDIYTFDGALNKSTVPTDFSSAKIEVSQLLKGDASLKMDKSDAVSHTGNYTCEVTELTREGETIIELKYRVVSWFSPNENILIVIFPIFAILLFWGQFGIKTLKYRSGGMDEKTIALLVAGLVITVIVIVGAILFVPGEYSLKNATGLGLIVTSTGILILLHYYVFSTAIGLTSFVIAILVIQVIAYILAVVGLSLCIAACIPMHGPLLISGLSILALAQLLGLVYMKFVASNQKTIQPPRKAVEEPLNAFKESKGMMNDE
UniProt O95400: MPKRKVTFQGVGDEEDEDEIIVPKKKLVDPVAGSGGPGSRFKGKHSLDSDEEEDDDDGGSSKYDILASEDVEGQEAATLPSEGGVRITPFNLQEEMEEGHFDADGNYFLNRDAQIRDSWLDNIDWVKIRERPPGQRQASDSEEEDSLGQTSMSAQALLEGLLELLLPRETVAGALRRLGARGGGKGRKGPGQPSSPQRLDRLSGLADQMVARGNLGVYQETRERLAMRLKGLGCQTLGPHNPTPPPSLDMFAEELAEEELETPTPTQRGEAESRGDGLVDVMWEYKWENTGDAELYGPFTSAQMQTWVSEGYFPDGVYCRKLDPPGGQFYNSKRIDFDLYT
UniProt Q8WUD4: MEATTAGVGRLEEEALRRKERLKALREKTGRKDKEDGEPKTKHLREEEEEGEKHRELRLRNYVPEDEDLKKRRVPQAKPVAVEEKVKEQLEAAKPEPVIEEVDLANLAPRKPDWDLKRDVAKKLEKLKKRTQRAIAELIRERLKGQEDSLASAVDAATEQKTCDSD
UniProt Q8N7R7: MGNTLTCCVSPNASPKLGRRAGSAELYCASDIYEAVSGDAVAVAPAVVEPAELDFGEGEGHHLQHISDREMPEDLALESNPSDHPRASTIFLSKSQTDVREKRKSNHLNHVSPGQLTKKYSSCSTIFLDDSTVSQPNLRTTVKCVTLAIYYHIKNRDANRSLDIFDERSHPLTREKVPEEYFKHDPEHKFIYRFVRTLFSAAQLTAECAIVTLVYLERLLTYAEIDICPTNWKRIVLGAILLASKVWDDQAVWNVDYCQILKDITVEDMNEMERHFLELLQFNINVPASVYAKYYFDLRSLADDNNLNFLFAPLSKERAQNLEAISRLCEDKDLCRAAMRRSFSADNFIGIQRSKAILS
UniProt Q567U6, whole entry, looked up: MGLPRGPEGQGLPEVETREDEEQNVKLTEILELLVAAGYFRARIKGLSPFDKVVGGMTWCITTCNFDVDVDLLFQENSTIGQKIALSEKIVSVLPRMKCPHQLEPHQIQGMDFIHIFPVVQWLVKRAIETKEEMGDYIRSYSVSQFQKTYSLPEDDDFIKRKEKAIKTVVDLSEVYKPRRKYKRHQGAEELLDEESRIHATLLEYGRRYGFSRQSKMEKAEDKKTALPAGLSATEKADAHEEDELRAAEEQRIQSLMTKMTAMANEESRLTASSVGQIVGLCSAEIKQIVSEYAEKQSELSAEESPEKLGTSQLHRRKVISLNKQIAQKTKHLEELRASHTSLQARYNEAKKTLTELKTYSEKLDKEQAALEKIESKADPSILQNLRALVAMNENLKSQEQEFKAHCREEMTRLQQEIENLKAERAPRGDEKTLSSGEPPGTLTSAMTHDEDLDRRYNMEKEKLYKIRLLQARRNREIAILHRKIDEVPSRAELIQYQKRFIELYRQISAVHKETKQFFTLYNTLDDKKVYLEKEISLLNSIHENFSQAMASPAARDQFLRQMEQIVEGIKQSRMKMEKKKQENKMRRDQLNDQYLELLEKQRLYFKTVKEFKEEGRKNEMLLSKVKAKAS
UniProt P78371: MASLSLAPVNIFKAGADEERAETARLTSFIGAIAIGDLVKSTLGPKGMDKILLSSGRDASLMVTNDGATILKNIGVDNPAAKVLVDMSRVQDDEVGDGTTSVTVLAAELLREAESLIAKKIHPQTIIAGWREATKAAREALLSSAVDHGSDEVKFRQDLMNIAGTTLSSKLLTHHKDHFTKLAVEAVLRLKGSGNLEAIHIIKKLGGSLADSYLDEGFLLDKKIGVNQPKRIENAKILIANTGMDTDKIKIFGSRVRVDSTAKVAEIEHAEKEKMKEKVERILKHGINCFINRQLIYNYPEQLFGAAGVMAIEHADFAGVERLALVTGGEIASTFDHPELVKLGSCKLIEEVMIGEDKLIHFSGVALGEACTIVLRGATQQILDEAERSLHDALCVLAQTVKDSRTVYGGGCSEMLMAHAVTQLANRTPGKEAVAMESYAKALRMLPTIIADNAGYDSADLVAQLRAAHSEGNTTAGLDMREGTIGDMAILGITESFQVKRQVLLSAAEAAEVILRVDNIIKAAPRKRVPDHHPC
UniProt Q9P219: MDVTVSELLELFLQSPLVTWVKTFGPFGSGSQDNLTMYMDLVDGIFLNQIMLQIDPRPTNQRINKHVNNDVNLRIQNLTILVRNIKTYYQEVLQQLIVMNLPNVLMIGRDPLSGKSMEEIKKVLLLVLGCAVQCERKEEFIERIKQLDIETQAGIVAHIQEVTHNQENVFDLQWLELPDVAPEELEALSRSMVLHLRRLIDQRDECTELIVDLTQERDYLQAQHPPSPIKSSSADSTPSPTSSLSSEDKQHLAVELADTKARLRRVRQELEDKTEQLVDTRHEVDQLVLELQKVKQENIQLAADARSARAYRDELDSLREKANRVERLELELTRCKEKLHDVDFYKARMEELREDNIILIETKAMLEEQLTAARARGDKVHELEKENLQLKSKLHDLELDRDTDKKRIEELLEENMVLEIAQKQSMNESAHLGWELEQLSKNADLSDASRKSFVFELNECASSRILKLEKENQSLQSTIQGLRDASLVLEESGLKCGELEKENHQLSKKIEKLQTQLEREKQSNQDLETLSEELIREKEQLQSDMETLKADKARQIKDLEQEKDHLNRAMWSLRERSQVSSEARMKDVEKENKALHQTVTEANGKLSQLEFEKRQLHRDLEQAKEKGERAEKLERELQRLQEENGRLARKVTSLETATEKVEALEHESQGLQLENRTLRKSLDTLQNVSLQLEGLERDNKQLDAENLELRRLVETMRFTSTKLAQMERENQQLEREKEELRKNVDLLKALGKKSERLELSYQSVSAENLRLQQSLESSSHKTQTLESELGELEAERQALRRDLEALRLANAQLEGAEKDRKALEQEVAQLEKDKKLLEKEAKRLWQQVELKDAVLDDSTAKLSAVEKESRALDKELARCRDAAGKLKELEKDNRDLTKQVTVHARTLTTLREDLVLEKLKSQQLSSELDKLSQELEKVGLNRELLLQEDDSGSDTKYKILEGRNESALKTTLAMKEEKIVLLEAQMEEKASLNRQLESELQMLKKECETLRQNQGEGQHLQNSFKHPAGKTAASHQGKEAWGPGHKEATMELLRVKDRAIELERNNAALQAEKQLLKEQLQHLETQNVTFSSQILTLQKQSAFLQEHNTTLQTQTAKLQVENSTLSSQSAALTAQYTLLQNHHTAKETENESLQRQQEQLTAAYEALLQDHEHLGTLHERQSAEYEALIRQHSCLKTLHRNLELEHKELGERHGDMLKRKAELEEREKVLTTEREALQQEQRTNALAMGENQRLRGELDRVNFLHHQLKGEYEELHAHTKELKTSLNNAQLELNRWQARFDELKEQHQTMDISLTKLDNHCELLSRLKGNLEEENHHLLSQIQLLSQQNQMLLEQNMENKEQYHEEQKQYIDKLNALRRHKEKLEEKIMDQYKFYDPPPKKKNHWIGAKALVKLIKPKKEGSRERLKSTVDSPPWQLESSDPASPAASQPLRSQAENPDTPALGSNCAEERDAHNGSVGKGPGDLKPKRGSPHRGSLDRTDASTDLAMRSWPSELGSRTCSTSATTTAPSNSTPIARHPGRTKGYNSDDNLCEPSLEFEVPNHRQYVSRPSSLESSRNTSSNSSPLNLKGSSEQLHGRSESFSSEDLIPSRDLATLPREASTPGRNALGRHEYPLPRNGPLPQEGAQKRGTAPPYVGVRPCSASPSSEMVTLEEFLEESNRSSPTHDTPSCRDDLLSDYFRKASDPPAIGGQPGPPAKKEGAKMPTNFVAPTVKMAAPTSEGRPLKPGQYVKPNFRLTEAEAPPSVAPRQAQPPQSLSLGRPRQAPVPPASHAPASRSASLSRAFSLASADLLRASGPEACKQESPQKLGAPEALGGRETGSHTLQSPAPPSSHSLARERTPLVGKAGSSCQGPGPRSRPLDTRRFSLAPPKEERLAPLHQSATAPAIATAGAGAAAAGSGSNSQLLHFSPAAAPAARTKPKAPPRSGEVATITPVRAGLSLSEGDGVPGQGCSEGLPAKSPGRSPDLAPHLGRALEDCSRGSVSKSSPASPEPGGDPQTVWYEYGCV
UniProt Q8N4T8: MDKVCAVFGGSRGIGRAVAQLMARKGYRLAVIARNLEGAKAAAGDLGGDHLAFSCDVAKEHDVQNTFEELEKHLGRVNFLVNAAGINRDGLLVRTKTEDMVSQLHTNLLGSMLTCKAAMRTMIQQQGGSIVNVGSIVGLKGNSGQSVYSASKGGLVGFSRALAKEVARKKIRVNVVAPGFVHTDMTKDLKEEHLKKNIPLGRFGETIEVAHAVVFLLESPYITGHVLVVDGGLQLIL

[1] = compound: C/C(=N\NC(=O)C1=CC(=CC=C1)S(=O)(=O)N2CCOCC2)/C3=C(C=CC(=C3)Cl)O
Procedure, shortened: as §1

[2] = compound: C1=CC(=CC=C1C2=NC3=C(N2)C=C(C=C3)C(=O)N)OC4=CC=C(C=C4)Cl
Procedure, shortened: as §1

[3] = compound: C1=CC2=C(C=CC(=C2)/C=C\3/C(=O)NC(=NCC4=CC=CS4)S3)N=C1
Procedure, shortened: as §1

[4] = compound: C1=CC2=NC=CN=C2C=C1/C=C/3\C(=O)NC(=O)S3
Procedure, shortened: as §1

[5] = compound: C1=CC=C(C=C1)C2=NC(=C(N2)C3=CC=NC=C3)C4=CC(=C(C=C4)Cl)O
Procedure, shortened: as §1

[6] = compound: C1=CC=C2C(=C1)C3=NNC4=CC=CC(=C43)C2=O
Procedure, shortened: as §1

[7] = compound: C1CCN(C1)C(=O)NC2=CC=CC(=C2)NC3=NC=C(C(=N3)NCCC4=CN=CN4)Br
Procedure, shortened: as §1

[8] = compound: C1CN(CCC1(CC2=CC=C(C=C2)Cl)N)C3=NC=NC4=C3C=CN4
Procedure, shortened: as §1

IRAK-1-4 Inhibitor I = compound: C1COCCN1CCN2C3=CC=CC=C3N=C2NC(=O)C4=CC(=CC=C4)[N+](=O)[O-] [IRAK-1-4 Inhibitor I]
Procedure, shortened: as §1

ibrutinib = compound: C=CC(=O)N1CCC[C@@H](n2nc(-c3ccc(Oc4ccccc4)cc3)c3c(N)ncnc32)C1 [ibrutinib]
Procedure, shortened: as §1

[9] = compound: CC(=O)c1cnc2ccc(-c3cc(Cl)c(O)c(Cl)c3)nc2c1N[C@H]1CC[C@H](CN(C)C)CC1
Procedure, shortened: as §1

ralimetinib = compound: CC(C)(C)Cn1c(N)nc2ccc(-c3[nH]c(C(C)(C)C)nc3-c3ccc(F)cc3)nc21 [ralimetinib]
Procedure, shortened: as §1

[10] = compound: CC(C)(O)CC(=O)NCCn1ccc2ncnc(Nc3ccc(Oc4cccc(C(F)(F)F)c4)c(Cl)c3)c21
Procedure, shortened: as §1

[11] = compound: CC(C)C1=C2N=C(C=C(N2N=C1)NCC3=CC=CC=C3)NCCCCCCN
Procedure, shortened: as §1

[12] = compound: CC1=C(C(CC(=O)N1)C2=CC=C(C=C2)C(F)(F)F)C(=O)NC3=C(C=C4C(=C3)C=NN4)F
Procedure, shortened: as §1

[13] = compound: CC1=C(C2=C(C=C1)C(=O)C3=CC=CC=C3N2CCCN)C
Procedure, shortened: as §1

[14] = compound: CC1=C(C=C(C=C1)NC(=O)C2=CC(=CC=C2)C(C)(C)C#N)NC3=CC4=C(C=C3)N=CN(C4=O)C
Procedure, shortened: as §1

[15] = compound: CC1=C(C=C(C=C1)NC(=O)C2=CC(=CC=C2)N(C)C)NC(=O)C3=CC=C(C=C3)O
Procedure, shortened: as §1

[16] = compound: CC1=CC=C(C=C1)SC2=C3C=C(SC3=CN=C2)C(=O)N
Procedure, shortened: as §1

Measured: log2 fold change

CCT3 (UniProt P49368)
inactive: erlotinib -0.015 | [1] -0.003 | [2] 0.018 | [3] -0.012 | [4] -0.012 | [5] 0.004 | [6] 0.036 | [7] 0.014 | [8] -0.014 | IRAK-1-4 Inhibitor I -0.004 | ibrutinib 0.003 | [9] -0.011 | ralimetinib -0.003 | [10] -0.004 | [11] -0.003 | [12] -0.031 | [13] -0.02 | [14] -0.007 | [15] 0.003 | [16] 0.003

CBX4 (UniProt O00257)
inactive: erlotinib -0.011 | [1] 0.212 | [2] 0.013 | [3] 0.056 | [4] -0.065 | [5] 0.017 | [6] 0.045 | [7] -0.242 | [8] -0.141 | IRAK-1-4 Inhibitor I 0.061 | ibrutinib 0.034 | [9] -0.08 | ralimetinib -0.078 | [10] -0.194 | [11] 0.014 | [12] -0.012 | [13] -0.07 | [14] -0.01 | [15] -0.038 | [16] -0.141

CCAR1 (UniProt Q8IX12)
inactive: erlotinib -0.009 | [1] -0.053 | [2] 0.015 | [3] 0.006 | [4] 0.005 | [5] -0.009 | [6] -0.003 | [7] -0.018 | [8] 0.001 | IRAK-1-4 Inhibitor I 0.023 | ibrutinib 0.014 | [9] 0.003 | ralimetinib -0.004 | [10] -0.021 | [11] 0.012 | [12] 0.018 | [13] 0.013 | [14] -0.05 | [15] -0.003 | [16] -0.005

CCDC91 (UniProt Q7Z6B0)
inactive: erlotinib -0.004 | [1] 0.014 | [2] -0.004 | [3] -0.019 | [4] -0.026 | [5] 0.026 | [6] 0.006 | [7] -0.002 | [8] 0.007 | IRAK-1-4 Inhibitor I 0.006 | ibrutinib -0.006 | [9] 0.002 | ralimetinib -0.014 | [10] -0.031 | [11] -0.043 | [12] -0.018 | [13] 0.027 | [14] -0.016 | [15] 0.018 | [16] -0.012

CCDC88A (UniProt Q3V6T2)
inactive: erlotinib 0.003 | [1] 0.067 | [2] -0.003 | [3] -0.007 | [4] -0.02 | [5] 0.003 | [6] 0.019 | [7] 0.008 | [8] 0.017 | IRAK-1-4 Inhibitor I -0.011 | ibrutinib 0.005 | [9] 0.018 | ralimetinib 0.006 | [10] -0.023 | [11] -0.012 | [12] 0.008 | [13] 0.008 | [14] -0.003 | [15] 0.012 | [16] -0.002

CD81 (UniProt P60033)
inactive: erlotinib 0.005 | [1] -0.061 | [2] 0.022 | [3] 0.042 | [4] 0.051 | [5] -0.031 | [6] -0.106 | [7] 0.002 | [8] 0.093 | IRAK-1-4 Inhibitor I -0.017 | ibrutinib -0.065 | [9] -0.02 | ralimetinib -0.065 | [10] -0.056 | [11] -0.031 | [12] 0.004 | [13] -0.001 | [14] -0.026 | [15] 0.034 | [16] -0.077

CD47 (UniProt Q08722)
inactive: erlotinib -0.025 | [1] -0.017 | [2] 0.01 | [3] -0.048 | [4] 0 | [5] 0.008 | [6] -0.127 | [7] -0.006 | [8] 0.022 | IRAK-1-4 Inhibitor I 0.002 | ibrutinib -0.119 | [9] 0.003 | ralimetinib 0.041 | [10] -0.016 | [11] -0.018 | [12] -0.087 | [13] -0.005 | [14] 0.061 | [15] -0.013 | [16] -0.017

CBWD5 (UniProt Q5RIA9)
inactive: erlotinib 0.025 | [1] -0.012 | [2] 0 | [3] 0 | [4] 0.09 | [5] -0.006 | [6] -0.027 | [7] 0.022 | [8] -0.005 | IRAK-1-4 Inhibitor I -0.02 | ibrutinib 0.025 | [9] -0.006 | ralimetinib 0.02 | [10] 0.001 | [11] -0.042 | [12] -0.013 | [13] -0.005 | [14] 0.03 | [15] 0.015 | [16] -0.007

CD2BP2 (UniProt O95400)
inactive: erlotinib 0.024 | [1] -0.022 | [2] 0.005 | [3] -0.008 | [4] -0.016 | [5] 0.001 | [6] 0.038 | [7] 0.015 | [8] -0.008 | IRAK-1-4 Inhibitor I -0.007 | ibrutinib 0.012 | [9] -0.008 | ralimetinib 0.016 | [10] -0.071 | [11] -0.021 | [12] 0.014 | [13] -0.012 | [14] -0.018 | [15] 0.043 | [16] 0.015

CCDC12 (UniProt Q8WUD4)
inactive: erlotinib -0.028 | [1] 0.03 | [2] 0.028 | [3] 0.017 | [4] -0.011 | [5] 0.074 | [6] -0.044 | [7] 0.039 | [8] 0.029 | IRAK-1-4 Inhibitor I 0.002 | ibrutinib -0.055 | [9] -0.007 | ralimetinib -0.061 | [10] 0.057 | [11] -0.008 | [12] -0.046 | [13] -0.019 | [14] 0.009 | [15] 0.059 | [16] -0.037

CCNYL1 (UniProt Q8N7R7)
inactive: erlotinib 0.026 | [1] -0.101 | [2] 0.084 | [3] 0.06 | [4] -0.04 | [5] -0.042 | [6] -0.002 | [7] -0.051 | [8] 0.049 | IRAK-1-4 Inhibitor I 0.026 | ibrutinib 0.047 | [9] 0.007 | ralimetinib 0.019 | [10] -0.032 | [11] 0.012 | [12] 0.027 | [13] -0.023 | [14] 0.028 | [15] -0.027 | [16] -0.006

CCDC93 (UniProt Q567U6)
inactive: erlotinib 0.055 | [1] 0 | [2] 0.032 | [3] -0.006 | [4] 0.006 | [5] -0.007 | [6] -0.066 | [7] -0.006 | [8] -0.011 | IRAK-1-4 Inhibitor I 0.005 | ibrutinib -0.006 | [9] -0.017 | ralimetinib -0.01 | [10] 0.002 | [11] -0.017 | [12] 0.023 | [13] 0.021 | [14] -0.014 | [15] 0.038 | [16] 0.055

CCT2 (UniProt P78371)
inactive: erlotinib -0.011 | [1] 0.003 | [2] -0.01 | [3] 0.003 | [4] -0.036 | [5] 0 | [6] 0.025 | [7] 0.02 | [8] 0.003 | IRAK-1-4 Inhibitor I 0.008 | ibrutinib -0.001 | [9] 0.005 | ralimetinib -0.001 | [10] 0.002 | [11] -0.003 | [12] -0.023 | [13] 0.017 | [14] -0.004 | [15] -0.01 | [16] 0.001

CCDC88C (UniProt Q9P219)
inactive: erlotinib -0.107 | [1] -0.035 | [2] 0.112 | [3] 0.006 | [4] 0.087 | [5] 0.012 | [6] -0.027 | [7] -0.014 | [8] -0.026 | IRAK-1-4 Inhibitor I -0.101 | ibrutinib -0.073 | [9] -0.094 | ralimetinib 0.005 | [10] -0.037 | [11] -0.19 | [12] -0.1 | [13] -0.108 | [14] 0.002 | [15] 0.064 | [16] -0.099

CCDC186 (UniProt Q7Z3E2)
inactive: erlotinib -0.018 | [1] 0.026 | [2] 0.01 | [3] 0.007 | [4] -0.03 | [5] -0.009 | [6] -0.027 | [7] -0.039 | [8] 0.007 | IRAK-1-4 Inhibitor I 0.016 | ibrutinib 0.024 | [9] -0.025 | ralimetinib -0.001 | [10] -0.056 | [11] -0.086 | [12] 0.006 | [13] 0.021 | [14] -0.016 | [15] 0 | [16] -0.023

CBR4 (UniProt Q8N4T8)
inactive: erlotinib -0.062 | [1] 0.072 | [2] 0.013 | [3] -0.029 | [4] 0.026 | [5] -0.007 | [6] -0.04 | [7] 0.022 | [8] 0 | IRAK-1-4 Inhibitor I 0.071 | ibrutinib 0.065 | [9] 0.171 | ralimetinib -0.021 | [10] -0.056 | [11] 0.01 | [12] 0.083 | [13] -0.143 | [14] 0.001 | [15] -0.084 | [16] 0.077

Source: the supplement of paper PMC10849652
